# Laboratory results as given in the supplement of paper PMC5949888.
# ± gives the standard deviation of the averaged measurements. Most values lie at the floor of the assay. Slopes are relative: functional sequences can read slightly below zero.
# Test system: Saccharomyces cerevisiae PS128 hsf1 delta, HSF1(1-493) fusion
# Experiment: growth estimate (transactivation domain function in HSF1 fusion, heat-shock survival) (a.u. (slope of normalised read count over time)); higher = stronger growth at 37°C, i.e. more transactivation activity
# Details: library: random library
# Experimental: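 Random 60-nt DNA library encoding peptides of up to 20 aa, fused to the C-terminus of yeast HSF1 residues 1-493 (C-terminal TAD deleted) and expressed from the native HSF1 promoter on a CEN plasmid in hsf1-deleted S. cerevisiae PS128. Cells were selected at 37°C on -trp 5-FOA plates for 0, 2, 4, 6 and 8 days and amplicons were sequenced. Growth estimate is the slope of a robust linear fit of total-sum-normalised read counts (normalised to the first time point) over time, using at least 2 replicates. Sequences are classed functional (TAD activity) above a threshold of -0.13, set from stop-codon control sequences.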
row,Substance,growth estimate
1,LPHLRSSSEPFEQARNCIRR,< -0.25
2,VWVPSEALLQLYMAGVRLLA,-0.243
3,ARAQWAFTSDASGANAHQLE,< -0.25
4,GKSGRSQAPEELEPRQPQSR,< -0.25
5,CSTCTRLRPVEEHPESGWRH,< -0.25
6,KGAGDL,< -0.25
7,INAVENSGSGSTCNT,< -0.25
8,PTATRGNAGTNEG,< -0.25
9,LPKRGWW,< -0.25
10,VEKLTYEPRILLGITGNQTR,< -0.25
11,YDRETLGRKCPGS,< -0.25
12,TFWR,< -0.25
13,QVYGLIA,< -0.25
14,WRVLEKIEIEVPGR,< -0.25
15,CQTSAVRLPSPNHCRLMHVV,< -0.25
16,QGILLKTGYTIPLAWRFDMY,< -0.25
17,SWFTPRGILDLRSLSEGTQT,< -0.25
18,VNLHASSMRA,< -0.25
19,IGRSDEMPVENLTSCHVWKP,< -0.25
20,GVGAGFGY,< -0.25
21,WTCGVSG,< -0.25
22,QSYKPKIVAKGCVRRDFVIA,< -0.25
23,DLVGTAYRGDRWLLNIEAKS,< -0.25
24,TRVIRPGSCLHRIALRRSTA,< -0.25
25,VGDRIICGSKRGSQGVPGQP,< -0.25

# Shown with bars between the fields: entries from further up.
row | Substance | growth estimate
2 | VWVPSEALLQLYMAGVRLLA | -0.243
13 | QVYGLIA | < -0.25
14 | WRVLEKIEIEVPGR | < -0.25
18 | VNLHASSMRA | < -0.25
21 | WTCGVSG | < -0.25
25 | VGDRIICGSKRGSQGVPGQP | < -0.25

# Remaining list, next part.

row,Substance,growth estimate
1,FLVQSNDTGHYKVALISVPY,< -0.25
2,DLARSGEVS,< -0.25
3,FVKDARVNCVNPRF,< -0.25
4,SHKCQGCVSVKHLEFRSCLV,< -0.25
5,SSGTAQMWGCHVGHDACTNR,< -0.25
6,RSEKPLEANRYWCRTIK,< -0.25
7,HRGADAGLWQFVNGPR,< -0.25
8,TETCLL,< -0.25
9,ASGRWISSGQ,< -0.25
10,HLGHSESVDNPGG,< -0.25
11,HDGRTKPDASGHRSVKKTGA,< -0.25
12,TNPLRLHDFDPMIDCERLRG,< -0.25
13,IVGFEPRRLSGDLMWDRSAQ,< -0.25
14,ETPTTNPTSEHDEAGNLLNR,< -0.25
15,VRPKLGWLSLVTF,< -0.25
16,PAHLRLRLRRAEVVSLHPN,< -0.25
17,ILSCGGRVHQMARSALPFAW,< -0.25
18,APRTNFERNRPLH,< -0.25
19,IMPIYVGYFRLGKLLDAEPL,< -0.25
20,FTVCAELGD,< -0.25
21,IFVG,< -0.25
22,QVPGAVPTRAVPDILGTMR,< -0.25
23,KWSAATEPTVIRYLKGDE,< -0.25
24,EGDLRQWSKCPEWDDQPVGG,< -0.25
25,RLLTSSSQDD,< -0.25

row,Substance,growth estimate
1,GYPEDPVHHGGRISGNPPVF,< -0.25
2,RNLIPLR,< -0.25
3,EYVHLVEGVFSSHYVPALRQ,< -0.25
4,RQTTTFN,< -0.25
5,LSKFATF,< -0.25
6,KNHKQLD,< -0.25
7,GSVDKVIRSLTQKLIRAIVS,< -0.25
8,ARHDGGFVE,< -0.25
9,DGLWTLYAGRGNRRRSVFKR,< -0.25
10,REAEG,-0.203
11,QPIGTHL,< -0.25
12,QWSKQSARTYLNSDRVLLSG,< -0.25
13,LNNEALPRPPGWRPHRLRSS,< -0.25
14,RVLSNTRCLTSRRCEDSYYG,< -0.25
15,EPRRTLS,< -0.25
16,FEKLE,< -0.25
17,VTARKQR,< -0.25
18,YIK,< -0.25
19,VCSQLGLSIGSASQNRLLFS,< -0.25
20,HLQAMTGV,-0.194
21,RCYAQCCTVPGLKRYCGWPF,< -0.25
22,CLS,< -0.25
23,PSKSSLGKSGAHRVYLDTRS,< -0.25
24,IAGRWMLVSEGCLEILAGEQ,< -0.25
25,QAHRANVGCLLSKKRK,< -0.25

# Quoted from the listing (three entries):
row,Substance,growth estimate
5,LSKFATF,< -0.25
6,KNHKQLD,< -0.25
7,GSVDKVIRSLTQKLIRAIVS,< -0.25

# (next part)

row,Substance,growth estimate
1,PESG,< -0.25
2,FHWLDRVRSDATPNVYQSDA,< -0.25
3,QLVWKLDAQFAYYCSPNIPP,< -0.25
4,EWPGRTLKGSKLE,< -0.25
5,VLSAIIHIK,< -0.25
6,RNQEPLPQGATSLSISLTI,-0.227
7,IRVGW,< -0.25
8,TSLSIGRSFETRLCRRHVAA,< -0.25
9,HRTY,< -0.25
10,RHTRVIAGLKRGRDGMAVAV,< -0.25
11,GGQFLG,< -0.25
12,PRHTLCKIGVNPLGALYEVG,-0.246
13,GVASRVWKICPGTRANVPRV,< -0.25
14,VSGAFGLPPCVL,< -0.25
15,GLALRYGFA,< -0.25
16,YRASQVAASAVCG,< -0.25
17,GTHD,< -0.25
18,LDR,< -0.25
19,KRA,-0.247 ± 0.0047
20,YQSDKLGGELFLAWRSSLKG,-0.245
21,RRPRFQFRGAYFRLGRQSPS,< -0.25
22,TWGRGEPLAGATGIIM,< -0.25
23,PAPLTYVVGSDHETVRLMY,< -0.25
24,RSDRVWVLENGDRATDGTRT,< -0.25
25,LMGVVRRPRVQLYR,0.183

row,Substance,growth estimate
1,RTFDGWTQLPELTTG,< -0.25
2,SLCQTLT,< -0.25
3,TNCALRSVIALYNRRLPHIV,< -0.25
4,LGFCGDNHPNTKALIGRLWE,< -0.25
5,LINLFQVVVLVPAFFCENQE,< -0.25
6,DLPQPKP,< -0.25
7,ALYCGHKGGLTATG,< -0.25
8,RSKGRA,< -0.25
9,HPCKSSLS,< -0.25
10,SQQLAEHGQERGSHKRVDKI,< -0.25
11,ESVRIVYVEHYQYNVLRDLV,< -0.25
12,AGYYSLARRKL,< -0.25
13,FVLATWSLGGPLQVTRLTHK,< -0.25
14,HEGLPQRTWSKKIRYDLKQK,10.4
15,VVEGGASWWGSRIKVRAAFY,< -0.25
16,LTPSV,< -0.25
17,INLAYGELEAQFR,< -0.25
18,DLCA,< -0.25
19,RPCPFNYLEPKP,< -0.25
20,EFSMES,< -0.25
21,RIAT,< -0.25
22,KATQ,< -0.25
23,DLFTIDT,< -0.25
24,RRSKRRTEYALCSVRLQCCH,< -0.25
25,WTSNVRPRCLMAMQADCRFR,-0.239

row,Substance,growth estimate
1,LGRSSFSLEHLLEQQ,< -0.25
2,IEVTIHGRQLPTLPLAQHSL,< -0.25
3,PAAVLLVTPTVSVDVLAVFS,< -0.25
4,PACGHGDLSFNQFSHGYDGR,< -0.25
5,SHAGKQYVRARCMTLLALSK,< -0.25
6,RATPVYCCALLASTRGNRAS,< -0.25
7,RVMTLRLMLSHFRALFNQER,< -0.25
8,FLVRPMYKRRALGRKGLEGL,< -0.25
9,GLSSSGTNSIGVRLHEPWRG,< -0.25
10,RSRKGGRVATRWMWTQGHNR,< -0.25
11,STKFDGGDSVR,< -0.25
12,LARYIRFYVLYVTVT,< -0.25
13,LVDTFRTRIYESM,< -0.25
14,HRD,< -0.25
15,RDNHSGACWSWEHRLRVRSS,< -0.25
16,HRHCLA,< -0.25
17,AHLGWIRPTGVSLGHAP,< -0.25
18,SQWKVI,< -0.25
19,CVTYRDDGMTQIGGYGCQIP,< -0.25
20,IAFAAVFPWSPPSGVISNGA,< -0.25
21,VLTLRADQVGKVVKTRRVGL,< -0.25
